According to PubChem BioAssay AID540256 (National Center for Advancing Translational Sciences (NCATS), 2011):
About 3,700 (1.2%) of roughly 300,000 compounds were called active. Inconclusive results, whose numbers are uncertain, are shown with a selection of clear calls. The call rests on the fitted dose curve; tested in HEK293 cells. Where the call is inconclusive, the potency comes from a doubtful curve fit.

Test: qHTS for Inhibitors of binding or entry into cells for Lassa Virus; further: nearly all actives have a fitted effect of over 50% in size
Conditions: Lassa virus pseudotype entry inhibition, cell reporter; series mostly up to 37.9 µM
Potency means the concentration at half of the fitted maximal effect.

| Compound | Potency |
| --- | --- |
| Cc1ccc(NC(=O)CSCc2cnn(-c3ccccc3)c2-n2cccc2)c(Cl)c1 | inactive |
| CC(Sc1cccc[n+]1[O-])C(=O)Nc1cc(Cl)c(Cl)cc1Cl (stereo unspecified) | inconclusive: 10 µM [activator, partial curve, poor fit] |
| Cc1nn(Cc2ccc(Cl)c(Cl)c2)c(C)c1NC(=O)c1cc(-c2ccco2)on1 | inconclusive: 1.3 µM [inhibitor, full curve, poor fit] |
| O=C(N/N=C/c1c[nH]c2ccccc12)c1[nH]c2ccc(Br)cc2c1-c1ccccc1 | inconclusive: 1.46 µM [inhibitor, full curve, poor fit] |
| O=C(C1CCN(S(=O)(=O)c2cccc3nsnc23)CC1)N1CC=C(c2ccccc2)CC1 | inconclusive: 11.2 µM [inhibitor, single point] |
| Cc1[nH]n2c(=O)cc(-c3ccc([N+](=O)[O-])cc3)nc2c1-c1ccccc1 | inconclusive: 35.5 µM [inhibitor, single point] |
| Cc1ccccc1N(CC(=O)NC1CCCCC1)C(=O)CCCC(=O)Nc1ccccn1 | inactive |
| Cc1cc(C)cc(-n2ccnc(NCc3ccc(F)cc3)c2=O)c1 | inactive |
| COCCCNCCCOc1ccc(C)cc1Br | inconclusive: 10.3 µM [inhibitor, partial curve, poor fit] |
| O=C(NCC(c1ccco1)N1CCc2ccccc2C1)c1ccc(Cl)c([N+](=O)[O-])c1 (stereo unspecified) | inconclusive: 22.4 µM [inhibitor, single point] |
| Cc1ccn2c(-c3csc(NCc4ccco4)n3)c(C)nc2c1 | inactive |
| CCCCN(Cc1ccccc1)C1CCN(CCc2ccccc2)CC1 | inconclusive: 10 µM [inhibitor, partial curve] |
| CC1CN(c2nc3ccccc3nc2C(C#N)C(=O)NCc2ccc3c(c2)OCO3)CC(C)O1 (stereo unspecified) | inconclusive: 0.112 µM [activator, full curve, poor fit] |
| CCOC(=O)c1sc2ccccc2c1NC(=O)c1coc2ccccc2c1=O | inactive |
| CSc1cccc(NC(=O)C2CCCN(S(=O)(=O)c3ccc(F)cc3)C2)c1 (stereo unspecified) | inconclusive: 35.5 µM [inhibitor, single point] |
| [O-][n+]1ccccc1/C=C/c1ccccc1 | inconclusive: 1.26 µM [inhibitor, single point] |
| COc1ccccc1OCC(=O)Nc1c(C(=O)c2ccc(C)cc2)oc2ccccc12 | inconclusive: 2 µM [inhibitor, full curve] |
| N#Cc1ccc(CSc2ncnc3c2cnn3Cc2ccccc2)cc1 | inconclusive: 35.5 µM [inhibitor, single point] |
| CCCCCn1c(CNC(=O)c2ccc(F)cc2)nc2ccccc21 | inconclusive: 35.5 µM [activator, single point] |
| CCS(=O)(=O)c1cccc(C(=O)N2CCN(c3nc4c(C)ccc(Cl)c4s3)CC2)c1 | inconclusive: 7.08 µM [inhibitor, partial curve, poor fit] |
| O=C(NC1CCN(Cc2ccccc2)CC1)c1cc(S(=O)(=O)Nc2ccc(F)cc2)ccc1Cl | inconclusive: 25.1 µM [inhibitor, single point] |

2 neighbouring records from above:

| Compound | Potency |
| --- | --- |
| CC(Sc1cccc[n+]1[O-])C(=O)Nc1cc(Cl)c(Cl)cc1Cl (stereo unspecified) | inconclusive: 10 µM [activator, partial curve, poor fit] |
| Cc1nn(Cc2ccc(Cl)c(Cl)c2)c(C)c1NC(=O)c1cc(-c2ccco2)on1 | inconclusive: 1.3 µM [inhibitor, full curve, poor fit] |

Further results

| Compound | Potency |
| --- | --- |
| O=C(c1cc(-c2ccc(F)cc2)on1)N1CCCCCC1 | inconclusive: 0.891 µM [activator, partial curve, poor fit] |
| CCCCCCCCCc1nc2sc3c(c2c(=O)n1NC(=O)c1ccccc1[N+](=O)[O-])CC(C)(C)OC3 | inconclusive: 35.5 µM [inhibitor, single point] |
| COC(=O)c1ccc(CSc2nc3c([nH]c4ccccc43)c(=O)n2-c2cc(C)cc(C)c2)o1 | inactive |
| O=C(O)CCC(=O)c1cccc2ccccc12 | inconclusive: 29.1 µM [activator, partial curve, poor fit] |
| COc1ccccc1NC(=O)c1sc2ncn(Cc3cccc4ccccc34)c(=O)c2c1C | inconclusive: 5.62 µM [activator, full curve] |
| Cc1[nH]n(-c2ccccc2)c(=O)c1/C=N/NC(=O)COc1ccccc1[N+](=O)[O-] | inconclusive: 29.1 µM [inhibitor, single point] |
| COc1cc(NC(=O)c2ccc(F)cc2)c(OC)cc1NC(=O)CN1CCOCC1 | inconclusive: 8.91 µM [inhibitor, partial curve, poor fit] |
| Cc1ccc(-c2nnc(Nc3cccc(O)c3)c3ccccc23)cc1S(=O)(=O)N1CCCCC1 | inconclusive: 11.2 µM [inhibitor, partial curve, poor fit] |
| CC(C)CN(CC(C)C)C(=S)Nc1ccc(Cl)cc1 | inconclusive: 10 µM [inhibitor, partial curve, poor fit] |
| CCOC(=O)C(=CNc1ccc(NC2=NCC(C)S2)cc1)C(=O)OCC (stereo unspecified) | inconclusive: 2 µM [inhibitor, full curve] |
| COc1ccc(C(=O)O/N=C(\N)c2ccccc2Cl)cc1OC | active: 4.47 µM |
| CCCc1nc(SCc2ccccc2Cl)n[nH]1 | inactive |
| CC1CCCCN1C(=O)COC(=O)c1cccc(NS(=O)(=O)c2ccccc2)c1 (stereo unspecified) | inconclusive: 35.5 µM [inhibitor, single point] |
| COc1ccc(NC(=O)c2cc(C)nc3c2c(C)nn3-c2cccc(Cl)c2C)c(OC)c1 | inconclusive: 14.1 µM [activator, partial curve, poor fit] |
| CC(=O)N1c2c(cc(Br)cc2S(=O)(=O)NCc2ccccc2Cl)CC1C (stereo unspecified) | inactive |
| O=C(CCc1ccccn1)N1CCCC(N2CCN(c3ccc(F)cc3)CC2)C1 (stereo unspecified) | inactive |
| Clc1ccc(CNc2ccc(CNc3ncn[nH]3)cc2)cc1 | inconclusive: 0.316 µM [activator, partial curve, poor fit] |
| O=C(NN(CC(O)COc1ccccc1)CC(O)COc1ccccc1)c1ccccc1 (stereo unspecified) | inconclusive: 2.24 µM [inhibitor, full curve] |
| COc1cc2c(cc1NC(=O)C(F)(F)F)-c1ccc(NC(=O)C(F)(F)F)cc1C2 | inconclusive: 0.282 µM [activator, full curve, poor fit] |
| CCOc1ccc(/C=C/C(=O)Oc2ccccc2)cc1 | inactive |
